# Results reported in the supplement of paper PMC11732987, “Enantioselective OTUD7B fragment discovery through chemoproteomics screening and high-throughput optimisation” (Communications Chemistry, 2025).
# Sequences of proteins named here, by UniProt entry; tags and fusion partners are left off. A change or cut given only in a name is not applied to a line headed by its entry. Residues count along the entry.
# UniProt Q9UGP8: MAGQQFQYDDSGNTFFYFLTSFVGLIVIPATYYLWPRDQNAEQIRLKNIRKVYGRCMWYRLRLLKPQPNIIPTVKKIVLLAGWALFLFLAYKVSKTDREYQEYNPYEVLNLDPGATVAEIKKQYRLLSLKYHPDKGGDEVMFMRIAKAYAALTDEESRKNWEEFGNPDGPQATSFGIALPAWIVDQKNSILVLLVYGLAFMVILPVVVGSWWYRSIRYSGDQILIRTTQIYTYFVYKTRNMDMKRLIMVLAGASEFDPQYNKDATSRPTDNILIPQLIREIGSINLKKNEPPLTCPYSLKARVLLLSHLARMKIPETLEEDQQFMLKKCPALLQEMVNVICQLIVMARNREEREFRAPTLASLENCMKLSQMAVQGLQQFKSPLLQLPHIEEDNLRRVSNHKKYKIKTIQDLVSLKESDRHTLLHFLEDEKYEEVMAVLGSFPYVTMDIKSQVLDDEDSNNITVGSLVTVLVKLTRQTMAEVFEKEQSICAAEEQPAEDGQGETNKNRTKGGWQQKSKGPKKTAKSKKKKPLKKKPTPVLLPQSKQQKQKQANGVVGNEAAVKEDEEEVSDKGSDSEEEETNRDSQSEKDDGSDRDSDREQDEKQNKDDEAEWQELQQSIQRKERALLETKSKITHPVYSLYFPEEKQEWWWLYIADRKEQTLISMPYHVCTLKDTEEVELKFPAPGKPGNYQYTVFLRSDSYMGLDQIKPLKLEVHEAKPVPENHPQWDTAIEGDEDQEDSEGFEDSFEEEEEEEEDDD
# UniProt Q6UVJ0: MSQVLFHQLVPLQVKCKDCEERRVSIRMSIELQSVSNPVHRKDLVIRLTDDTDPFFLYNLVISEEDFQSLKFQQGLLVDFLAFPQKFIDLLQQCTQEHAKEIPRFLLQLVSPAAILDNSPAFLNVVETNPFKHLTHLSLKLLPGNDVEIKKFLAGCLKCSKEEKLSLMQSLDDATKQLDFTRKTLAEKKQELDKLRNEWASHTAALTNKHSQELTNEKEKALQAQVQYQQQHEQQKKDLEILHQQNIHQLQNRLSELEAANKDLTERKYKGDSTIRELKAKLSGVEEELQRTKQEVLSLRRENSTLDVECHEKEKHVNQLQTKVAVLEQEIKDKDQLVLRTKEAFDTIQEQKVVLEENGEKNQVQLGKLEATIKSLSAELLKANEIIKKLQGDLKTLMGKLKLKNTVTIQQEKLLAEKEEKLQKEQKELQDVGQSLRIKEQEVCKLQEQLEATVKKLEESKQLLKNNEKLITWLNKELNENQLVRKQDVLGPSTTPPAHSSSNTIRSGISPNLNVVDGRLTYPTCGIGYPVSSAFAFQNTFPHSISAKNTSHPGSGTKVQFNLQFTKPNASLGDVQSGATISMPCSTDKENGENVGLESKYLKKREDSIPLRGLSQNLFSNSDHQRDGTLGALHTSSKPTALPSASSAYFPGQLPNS
# UniProt Q9BX95: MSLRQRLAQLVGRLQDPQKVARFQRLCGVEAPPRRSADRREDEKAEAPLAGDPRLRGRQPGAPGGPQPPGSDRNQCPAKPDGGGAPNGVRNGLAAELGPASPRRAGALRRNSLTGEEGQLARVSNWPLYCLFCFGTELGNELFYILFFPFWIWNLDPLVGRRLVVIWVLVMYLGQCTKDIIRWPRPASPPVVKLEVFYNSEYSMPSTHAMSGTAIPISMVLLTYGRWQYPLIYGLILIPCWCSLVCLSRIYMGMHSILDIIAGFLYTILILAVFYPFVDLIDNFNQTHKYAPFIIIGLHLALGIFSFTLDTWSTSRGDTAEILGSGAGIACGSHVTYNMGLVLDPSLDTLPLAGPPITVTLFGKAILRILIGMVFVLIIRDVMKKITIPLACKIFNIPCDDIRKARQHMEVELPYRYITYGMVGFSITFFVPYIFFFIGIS
# UniProt Q96ST3: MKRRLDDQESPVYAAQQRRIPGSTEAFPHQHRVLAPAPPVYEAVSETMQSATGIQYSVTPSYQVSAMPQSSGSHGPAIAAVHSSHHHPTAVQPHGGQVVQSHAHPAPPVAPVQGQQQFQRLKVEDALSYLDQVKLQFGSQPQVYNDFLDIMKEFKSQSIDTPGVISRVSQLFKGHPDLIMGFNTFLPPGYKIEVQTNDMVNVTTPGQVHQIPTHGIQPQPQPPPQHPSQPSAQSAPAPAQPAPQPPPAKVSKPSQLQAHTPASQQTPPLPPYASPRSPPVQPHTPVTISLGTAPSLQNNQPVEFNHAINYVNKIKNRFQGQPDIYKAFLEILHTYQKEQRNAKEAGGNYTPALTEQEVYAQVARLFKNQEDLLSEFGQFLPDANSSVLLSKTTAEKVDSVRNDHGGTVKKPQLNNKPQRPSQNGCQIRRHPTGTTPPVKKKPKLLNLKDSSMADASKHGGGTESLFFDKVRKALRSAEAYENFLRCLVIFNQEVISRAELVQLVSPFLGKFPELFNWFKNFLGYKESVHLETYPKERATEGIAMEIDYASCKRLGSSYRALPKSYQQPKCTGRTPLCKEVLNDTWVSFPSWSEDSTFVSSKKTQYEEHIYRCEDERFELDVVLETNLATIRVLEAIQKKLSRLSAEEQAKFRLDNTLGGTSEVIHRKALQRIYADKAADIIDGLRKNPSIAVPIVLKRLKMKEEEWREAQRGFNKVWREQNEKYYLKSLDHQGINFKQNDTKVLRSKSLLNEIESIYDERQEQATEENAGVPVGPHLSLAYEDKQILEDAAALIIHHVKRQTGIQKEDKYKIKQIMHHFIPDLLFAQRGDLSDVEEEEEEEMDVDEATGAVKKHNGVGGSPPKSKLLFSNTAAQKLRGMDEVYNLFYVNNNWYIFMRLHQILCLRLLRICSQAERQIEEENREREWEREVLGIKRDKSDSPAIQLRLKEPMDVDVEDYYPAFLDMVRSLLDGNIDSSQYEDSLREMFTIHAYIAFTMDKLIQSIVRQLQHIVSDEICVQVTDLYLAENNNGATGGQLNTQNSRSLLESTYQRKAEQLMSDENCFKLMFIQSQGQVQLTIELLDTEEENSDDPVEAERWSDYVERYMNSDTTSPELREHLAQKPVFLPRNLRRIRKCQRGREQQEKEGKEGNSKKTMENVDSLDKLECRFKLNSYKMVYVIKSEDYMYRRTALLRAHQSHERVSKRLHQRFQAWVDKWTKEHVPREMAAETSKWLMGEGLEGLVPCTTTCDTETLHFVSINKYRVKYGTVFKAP
# UniProt Q86XK3, 197-216: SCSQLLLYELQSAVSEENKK
# UniProt O95487: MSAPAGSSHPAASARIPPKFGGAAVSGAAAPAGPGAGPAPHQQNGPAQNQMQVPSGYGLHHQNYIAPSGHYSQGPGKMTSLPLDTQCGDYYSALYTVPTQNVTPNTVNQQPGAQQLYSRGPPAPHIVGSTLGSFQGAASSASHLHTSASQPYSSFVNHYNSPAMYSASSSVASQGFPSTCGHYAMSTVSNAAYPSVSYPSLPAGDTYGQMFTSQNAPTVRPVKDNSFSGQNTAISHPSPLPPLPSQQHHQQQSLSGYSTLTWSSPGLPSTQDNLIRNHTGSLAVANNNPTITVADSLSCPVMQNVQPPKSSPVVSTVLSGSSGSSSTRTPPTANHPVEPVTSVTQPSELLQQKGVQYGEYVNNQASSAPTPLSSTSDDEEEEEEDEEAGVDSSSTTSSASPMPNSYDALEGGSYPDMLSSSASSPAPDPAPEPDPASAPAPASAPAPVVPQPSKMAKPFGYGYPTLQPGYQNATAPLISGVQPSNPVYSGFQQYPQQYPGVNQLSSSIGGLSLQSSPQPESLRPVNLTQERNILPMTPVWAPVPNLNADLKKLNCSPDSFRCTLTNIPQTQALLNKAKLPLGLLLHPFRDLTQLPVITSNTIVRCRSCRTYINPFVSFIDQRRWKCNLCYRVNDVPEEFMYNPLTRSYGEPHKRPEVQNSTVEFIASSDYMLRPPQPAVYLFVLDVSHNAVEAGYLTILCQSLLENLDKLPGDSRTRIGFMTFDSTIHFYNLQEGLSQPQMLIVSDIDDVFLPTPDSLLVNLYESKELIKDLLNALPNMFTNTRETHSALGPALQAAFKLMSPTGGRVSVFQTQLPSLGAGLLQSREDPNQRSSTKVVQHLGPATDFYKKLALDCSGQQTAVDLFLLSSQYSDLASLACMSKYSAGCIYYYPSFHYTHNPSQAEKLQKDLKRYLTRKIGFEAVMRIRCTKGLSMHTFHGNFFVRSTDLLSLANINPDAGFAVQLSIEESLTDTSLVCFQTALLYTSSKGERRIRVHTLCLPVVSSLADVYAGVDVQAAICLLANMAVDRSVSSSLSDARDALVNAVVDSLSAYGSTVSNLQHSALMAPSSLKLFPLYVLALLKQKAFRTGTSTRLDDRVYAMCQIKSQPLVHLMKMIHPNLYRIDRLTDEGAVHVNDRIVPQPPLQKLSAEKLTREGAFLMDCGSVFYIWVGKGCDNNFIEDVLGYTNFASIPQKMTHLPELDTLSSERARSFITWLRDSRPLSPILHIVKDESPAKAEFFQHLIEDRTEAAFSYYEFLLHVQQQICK
# UniProt Q96HI0: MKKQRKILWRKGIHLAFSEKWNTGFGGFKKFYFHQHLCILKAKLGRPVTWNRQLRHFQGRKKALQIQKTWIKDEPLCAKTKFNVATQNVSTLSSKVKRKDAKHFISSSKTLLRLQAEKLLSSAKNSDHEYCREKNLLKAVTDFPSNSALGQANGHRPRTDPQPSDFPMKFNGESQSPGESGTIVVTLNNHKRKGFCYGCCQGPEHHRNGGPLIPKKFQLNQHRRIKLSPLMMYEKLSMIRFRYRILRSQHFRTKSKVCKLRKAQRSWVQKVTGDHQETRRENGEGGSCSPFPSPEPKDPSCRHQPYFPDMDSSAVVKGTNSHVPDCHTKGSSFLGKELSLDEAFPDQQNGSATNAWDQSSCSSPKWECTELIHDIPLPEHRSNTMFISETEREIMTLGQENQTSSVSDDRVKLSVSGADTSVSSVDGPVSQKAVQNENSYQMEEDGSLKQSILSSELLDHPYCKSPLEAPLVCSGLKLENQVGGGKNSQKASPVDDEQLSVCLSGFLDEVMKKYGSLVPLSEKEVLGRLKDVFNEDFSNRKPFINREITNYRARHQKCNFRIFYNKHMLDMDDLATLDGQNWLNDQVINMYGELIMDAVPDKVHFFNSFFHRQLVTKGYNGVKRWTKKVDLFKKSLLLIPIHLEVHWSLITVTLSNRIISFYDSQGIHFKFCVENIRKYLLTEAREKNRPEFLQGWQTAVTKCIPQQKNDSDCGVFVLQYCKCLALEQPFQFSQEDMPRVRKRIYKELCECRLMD
# UniProt Q96T21: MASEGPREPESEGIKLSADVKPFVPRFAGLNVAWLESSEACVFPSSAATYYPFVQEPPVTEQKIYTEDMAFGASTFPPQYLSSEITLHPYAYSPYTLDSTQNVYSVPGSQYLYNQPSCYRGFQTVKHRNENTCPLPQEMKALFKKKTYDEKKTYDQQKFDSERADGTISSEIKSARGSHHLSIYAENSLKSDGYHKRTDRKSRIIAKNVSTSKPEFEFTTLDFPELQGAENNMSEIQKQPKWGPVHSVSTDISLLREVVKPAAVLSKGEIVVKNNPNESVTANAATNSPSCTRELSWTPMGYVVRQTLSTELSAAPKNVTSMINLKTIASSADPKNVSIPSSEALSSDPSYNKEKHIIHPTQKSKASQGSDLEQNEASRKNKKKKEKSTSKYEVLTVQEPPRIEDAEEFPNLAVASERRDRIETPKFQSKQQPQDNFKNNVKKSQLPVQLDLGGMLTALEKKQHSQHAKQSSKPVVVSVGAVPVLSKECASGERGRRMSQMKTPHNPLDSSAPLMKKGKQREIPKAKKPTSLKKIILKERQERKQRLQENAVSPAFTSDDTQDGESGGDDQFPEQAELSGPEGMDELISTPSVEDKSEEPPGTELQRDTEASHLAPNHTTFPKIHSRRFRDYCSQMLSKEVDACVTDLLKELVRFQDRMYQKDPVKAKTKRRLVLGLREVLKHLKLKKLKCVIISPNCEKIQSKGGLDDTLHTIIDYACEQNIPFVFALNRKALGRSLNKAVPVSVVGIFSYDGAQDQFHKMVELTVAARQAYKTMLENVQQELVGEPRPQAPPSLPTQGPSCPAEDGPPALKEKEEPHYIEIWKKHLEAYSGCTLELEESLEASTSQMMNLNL
# UniProt Q9NRX5: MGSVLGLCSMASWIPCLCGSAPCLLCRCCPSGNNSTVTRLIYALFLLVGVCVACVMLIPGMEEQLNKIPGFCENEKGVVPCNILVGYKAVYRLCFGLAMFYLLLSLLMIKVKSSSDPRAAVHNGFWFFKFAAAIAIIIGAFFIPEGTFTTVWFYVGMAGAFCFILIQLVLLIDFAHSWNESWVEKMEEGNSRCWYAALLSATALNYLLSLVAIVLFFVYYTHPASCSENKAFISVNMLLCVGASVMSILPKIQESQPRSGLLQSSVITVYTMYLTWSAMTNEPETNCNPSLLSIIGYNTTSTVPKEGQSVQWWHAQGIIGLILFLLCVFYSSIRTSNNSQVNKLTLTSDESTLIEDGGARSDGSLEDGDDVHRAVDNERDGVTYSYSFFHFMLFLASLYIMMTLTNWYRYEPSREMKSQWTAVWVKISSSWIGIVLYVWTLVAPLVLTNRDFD
# This is one part of the list. The data scatter; read single values as rough.
# Tests used:
# [1] = compound: ClCC(=O)N[C@@H]1CCCc2ccccc12; experiment: log2 mean competition ratio of IA-DTB cysteine labelling (DMSO/compound) (log2 ratio); higher = stronger cysteine engagement by compound; conditions: treatment time: 4 h, cell line lysate: HEK293T
# Procedure: (§1)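 IA-DTB competitive cysteine chemoproteomics in HEK293T RIPA lysate. Lysates were treated with compound 29 or 30 at 50 or 200 µM for 4 h, then IA-DTB (500 µM, 1 h), trypsin-digested, NeutrAvidin-enriched and analysed by diaPASEF. Competition ratio = intensity DMSO / intensity compound (n=4 treated, n=64 DMSO); binding: mean log2 CR ≥ 1 and p ≤ 0.05 plus QC filters. Target is the cysteine site.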
# [2] = compound: ClCC(=O)N[C@H]1CCCc2ccccc12; experiment: as above; conditions: treatment time: 4 h, cell line lysate: HEK293T
# Procedure: as §1
Target,log2 mean competition ratio ([1]; 50 µM),log2 mean competition ratio ([1]; 200 µM),log2 mean competition ratio ([2]; 50 µM),log2 mean competition ratio ([2]; 200 µM)
SENP7 C316 (UniProt Q9BQF6),-0.148,-0.384,0.013,-0.369
SEC63 C295 (UniProt Q9UGP8),0.276,0.844,0.18,0.779
SF3B1 C1035 (UniProt O75533),-0.00984,-0.167,-0.0875,-0.0112
SASS6 C444 (UniProt Q6UVJ0),-0.0541,0.353,-0.12,0.0695
SH3TC1 C453,-0.0334,-0.18,0.318,-0.1
SIPA1L2 C1054 (UniProt Q9P2F8),0.365,0.243,0.0135,0.0979
SIPA1L3 C438,-0.114,-0.00118,-0.165,0.0414
SGPP1 C27 (UniProt Q9BX95),0.123,-0.411,0.121,0.0519
SETX C1368 (UniProt Q7Z333),-0.011,0.212,0.0137,-0.102
SIRT1 C574 (UniProt Q96EB6),-0.0175,0.112,-0.138,-0.2
SH3D19 C455 (UniProt Q5HYK7),-0.238,0.0197,0.393,0.386
SH2B1 C587 (UniProt Q9NRF2),-0.101,0.498,-0.249,0.661
SEC23IP C604 (UniProt Q9Y6Y8),0.409,0.0976,-0.146,0.0515
SBF1 C570 (UniProt O95248),-0.106,-0.268,-0.383,-0.233
SIN3A C1167 (UniProt Q96ST3),-0.00363,0.423,-0.164,0.45
SHB C115 (UniProt Q15464),0.158,-0.0631,0.252,0.202
SFR1 C198 (UniProt Q86XK3),-0.0817,-0.276,-0.0657,-0.0434
SEC24B C1103 (UniProt O95487),0.22,0.0454,0.509,0.143
SENP5 C288 (UniProt Q96HI0),-0.16,0.302,-0.552,-0.000517
SECISBP2 C644 (UniProt Q96T21),-0.221,-0.0174,-0.349,0.103
SCYL1 C512 (UniProt Q96KG9),-0.0447,-0.192,-0.202,-0.0797
SFMBT1 C810,-0.162,-0.0613,0.312,0.0185
SERINC1 C72 (UniProt Q9NRX5),0.0343,-0.15,-0.121,-0.188
SH3D19 C718 (UniProt Q5HYK7),0.0203,-0.089,0.166,-0.238

# Looked up one by one from the list above, 2 records:
Target,log2 mean competition ratio ([1]; 50 µM),log2 mean competition ratio ([1]; 200 µM),log2 mean competition ratio ([2]; 50 µM),log2 mean competition ratio ([2]; 200 µM)
SEC63 C295 (UniProt Q9UGP8),0.276,0.844,0.18,0.779
SFMBT1 C810,-0.162,-0.0613,0.312,0.0185
